Values from PubChem BioAssay AID1259308 (NCATS, 2017).

Screen: 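Knock-downs that increase output of a recombinant reporter protein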 (primary screen)
Cell system: human HEK293 embryonic kidney cells stably expressing firefly luciferase (HEK-CMV-Luc2-Hygro)
Reagents: single siRNA against human genes, 0.8 pmol siRNA per well
Timing: 72 h
Detection: 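Reporter luminescence and viable-cell signal on separate replicate plates, given as percent of non-targeting control and median/MAD z-scores, plus per-cell luciferase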
Scale: total luciferase, z-score and total luciferase, % of control: higher = more reporter protein produced
Rule for the call: 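An siRNA counts as active if its total luciferase robust z-score exceeds 3; genes with two or more such siRNAs out of three were retested with fresh siRNAs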
Calls: active = raised luciferase; inactive = no rise
The deposit covers about 59,000 reagents; this is a part drawn at random. About 1,510 of them (2.6%) count as active. 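Calls use total luciferase alone and ignore viability, so some active siRNAs may act by altering cell number.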 Unmarked entries are inactive. Reagents against one gene are numbered here. Further read-outs or replicates are left out here.

TMBIM1 (transmembrane BAX inhibitor motif containing 1) #1 — total luciferase, z-score: -1.92; total luciferase, % of control: 43.7
TMBIM1 (transmembrane BAX inhibitor motif containing 1) #2 — total luciferase, z-score: 0.51; total luciferase, % of control: 92
TMBIM1 (transmembrane BAX inhibitor motif containing 1) #3 — total luciferase, z-score: 1.09; total luciferase, % of control: 104
KLHL20 (kelch like family member 20) #1 — total luciferase, z-score: 0.154; total luciferase, % of control: 85
KLHL20 (kelch like family member 20) #2 — total luciferase, z-score: -0.714; total luciferase, % of control: 67.7
KLHL20 (kelch like family member 20) #3 — total luciferase, z-score: -1.26; total luciferase, % of control: 56.7

Continued; the last 2 above are carried over.
KLHL20 (kelch like family member 20) #2 — total luciferase, z-score: -0.714; total luciferase, % of control: 67.7
KLHL20 (kelch like family member 20) #3 — total luciferase, z-score: -1.26; total luciferase, % of control: 56.7
NEK9 (NIMA related kinase 9) #1 — total luciferase, z-score: -0.996; total luciferase, % of control: 62.1
NEK9 (NIMA related kinase 9) #2 — total luciferase, z-score: 1.22; total luciferase, % of control: 106
NEK9 (NIMA related kinase 9) #3 — total luciferase, z-score: -0.479; total luciferase, % of control: 72.4
TRIM33 (tripartite motif containing 33) #1 — total luciferase, z-score: 0.136; total luciferase, % of control: 84.6
TRIM33 (tripartite motif containing 33) #2 — total luciferase, z-score: 0.472; total luciferase, % of control: 91.3
TRIM33 (tripartite motif containing 33) #3 — total luciferase, z-score: -0.244; total luciferase, % of control: 77
